The record followed here is PMC7869461.

The chains behind the UniProt entries cited, without tags or fusion partners.
UniProt Q92466: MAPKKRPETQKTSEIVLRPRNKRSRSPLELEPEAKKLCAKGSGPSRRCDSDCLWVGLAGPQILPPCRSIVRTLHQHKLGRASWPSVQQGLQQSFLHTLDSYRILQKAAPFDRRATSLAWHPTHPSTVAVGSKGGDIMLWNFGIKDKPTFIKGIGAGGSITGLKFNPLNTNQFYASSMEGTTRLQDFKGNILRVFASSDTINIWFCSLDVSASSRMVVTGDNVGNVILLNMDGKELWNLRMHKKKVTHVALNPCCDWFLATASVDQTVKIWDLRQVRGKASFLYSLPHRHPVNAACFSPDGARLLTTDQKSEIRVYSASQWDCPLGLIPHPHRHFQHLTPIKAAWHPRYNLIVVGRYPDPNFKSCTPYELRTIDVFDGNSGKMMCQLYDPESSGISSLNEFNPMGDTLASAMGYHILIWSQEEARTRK
UniProt Q9NZJ0: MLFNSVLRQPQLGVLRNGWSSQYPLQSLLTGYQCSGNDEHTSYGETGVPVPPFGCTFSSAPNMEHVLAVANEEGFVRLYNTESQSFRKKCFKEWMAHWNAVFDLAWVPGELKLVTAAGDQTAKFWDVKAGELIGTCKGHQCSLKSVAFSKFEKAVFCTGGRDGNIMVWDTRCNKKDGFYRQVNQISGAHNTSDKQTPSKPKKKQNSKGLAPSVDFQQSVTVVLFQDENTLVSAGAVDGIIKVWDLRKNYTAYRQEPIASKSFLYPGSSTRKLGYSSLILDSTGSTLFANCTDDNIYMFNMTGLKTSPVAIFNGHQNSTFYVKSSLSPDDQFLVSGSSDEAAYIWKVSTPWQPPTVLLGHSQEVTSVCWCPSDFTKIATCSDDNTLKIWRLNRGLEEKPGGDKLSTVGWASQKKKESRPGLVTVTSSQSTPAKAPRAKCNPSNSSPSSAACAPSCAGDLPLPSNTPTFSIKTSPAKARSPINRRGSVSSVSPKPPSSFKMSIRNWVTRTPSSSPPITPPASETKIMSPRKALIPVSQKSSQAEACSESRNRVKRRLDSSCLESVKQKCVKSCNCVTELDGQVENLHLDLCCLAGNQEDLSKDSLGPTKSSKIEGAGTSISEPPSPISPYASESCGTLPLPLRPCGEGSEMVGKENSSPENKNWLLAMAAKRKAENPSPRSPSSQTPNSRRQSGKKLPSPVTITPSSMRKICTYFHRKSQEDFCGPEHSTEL

These are yes or no findings as the source states them, for the method shown. Binding seen in cells or lysates may run through a third protein. Some binding calls cover weakened binding; strength is not graded here.

Assay [1] addresses DNA damage binding protein 2 (DDB2) (human (endogenous in HCT116)) (UniProt Q92466). In words: co-IP; endogenous proteins; HCT116 cells treated with MG132 (10 µg/mL) for 4 h; lysate in IP buffer (0.5% Nonidet P40, 50 mM Hepes pH 7.5, 150 mM NaCl, 1 mM EDTA); precipitated with NRS, anti-CDT2 or anti-DDB2 antibodies overnight at 4 °C, protein G beads; Western blot. For orientation: A western blot detects proteins with antibodies after separation by electrophoresis.

The target of assay [2] is CDT2 (human (endogenous in HCT116)) (UniProt Q9NZJ0). The description is as above.

As for CDT2 (from UniProt Q9NZJ0 1-730), in assay [1], the binding result is “binds”. For the substance “DNA damage binding protein 2 (DDB2) (from UniProt Q92466 1-427)”, the binding entry in assay [2] is “binds”.
